Data as given in PubChem BioAssay AID743454 (Peter MacCallum Cancer Centre, 2014).

- Screen: 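Knock-downs lowering viability or raising caspase 3/7 activity in vorinostat-treated resistant cells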 (primary screen)
- Cell system: human HCT116-VR colon cancer cells, selected for vorinostat resistance
- Reagent: siRNA pool against human genes, 40 nM siRNA pool
- Timing: vorinostat for 24 h, read-out about 72 h after transfection
- Challenge: vorinostat at 2.5 µM final
- Measured: 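Cell viability by CellTiter-Fluor and caspase 3/7 activity by luminescence, each scaled to mock wells per plate, duplicates averaged, then robust z-scored over all plates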
- Scale: viability robust z-score: higher = more viable cells than screen typical; caspase robust z-score: higher = more caspase 3/7 activity than screen typical
- Rule for the call: 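a knock-down is a hit when classed RV1 or RV2 for lowered viability, or CA1 or CA2 for caspase activation; those lethal without drug were dropped; hits were retested singly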
In all, the deposit lists about 18,000 reagents; this is a part drawn at random. Of all reagents, 450 (2.5%) are marked active. 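Single biological run; no consistent viability z cut-off exists, so the class columns, not z-scores, define the calls.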 Entries without a mark were called inactive.

RIPOR3 (GeneID 140876): viability hit class = no change; caspase hit class = no change; viability robust z-score = 0.78; caspase robust z-score = -0.96
EFR3A (GeneID 23167): viability hit class = no change; caspase hit class = no change; viability robust z-score = -0.83; caspase robust z-score = -0.86
LACTB2 (GeneID 51110): viability hit class = no change; caspase hit class = no change; viability robust z-score = 0.94; caspase robust z-score = -0.84
GCLM (GeneID 2730): viability hit class = no change; caspase hit class = no change; viability robust z-score = 0.46; caspase robust z-score = -0.36
CDCP1 (GeneID 64866): viability hit class = no change; caspase hit class = no change; viability robust z-score = -0.95; caspase robust z-score = 0.72
NDUFS7 (GeneID 374291): viability hit class = no change; caspase hit class = no change; viability robust z-score = -0.33; caspase robust z-score = 0.66

2 consecutive entries already listed:
LACTB2 (GeneID 51110): viability hit class = no change; caspase hit class = no change; viability robust z-score = 0.94; caspase robust z-score = -0.84
GCLM (GeneID 2730): viability hit class = no change; caspase hit class = no change; viability robust z-score = 0.46; caspase robust z-score = -0.36

The results go on:
SDK1 (GeneID 221935): viability hit class = no change; caspase hit class = no change; viability robust z-score = -0.01; caspase robust z-score = -0.68
PRMT3 (GeneID 10196): viability hit class = no change; caspase hit class = no change; viability robust z-score = -0.23; caspase robust z-score = 1.5
LALBA (GeneID 3906): viability hit class = no change; caspase hit class = no change; viability robust z-score = 1.14; caspase robust z-score = -0.64
GMFG (GeneID 9535): viability hit class = no change; caspase hit class = no change; viability robust z-score = -0.82; caspase robust z-score = 2.02
NLRP4 (GeneID 147945): viability hit class = no change; caspase hit class = no change; viability robust z-score = -1.82; caspase robust z-score = 3.44
KRT40 (GeneID 125115): viability hit class = no change; caspase hit class = no change; viability robust z-score = 0.61; caspase robust z-score = 0.36
S100A1 (GeneID 6271): viability hit class = no change; caspase hit class = no change; viability robust z-score = 1.23; caspase robust z-score = 3.91
CACNA1H (GeneID 8912): viability hit class = no change; caspase hit class = no change; viability robust z-score = -0.2; caspase robust z-score = 0.82
